Each structure is given as a SMILES string. This is one part of the list. Shown are side measurements of this screen, not its main read-out; they come without a call. Most of these compounds were active or inconclusive in the main read-out, so they are no random draw. Potencies come from curve fits of mixed quality, noted in brackets.

The experiment can be described thus: qHTS Assay for Lipid Storage Modulators in Drosophila S3 Cells.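 As to cell number change: cells counted by Cell Tracker Red CMTPX staining in the red channel.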 The note with it: BODIPY lipid droplet fluorescence, 18-24 h; for cell number change: measured here: cell count max response, cells fed with added oleic acid. The essentials: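 Laser-scanning cytometry quantifies lipid droplet accumulation (500–530 nm total intensity; droplet/cell object ratio) in oleic acid-fed (400 uM added) Drosophila S3 cells treated with a concentration series. 20 uM Triacsin C defined 100% inhibition.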
(In general: In qHTS, concentration-response curves come from the screen itself.)

The mark [1] stands for this setting: measured here: cell number channel AC50, cells fed with added oleic acid.
The mark [2] stands for this setting: measured here: lipid fluorescence (Fed channel) AC50, cells fed with added oleic acid.

By AC50 is commonly meant the midpoint of the concentration-response curve, whichever way the signal moves. Low readings indicate activity at low concentration, high ones activity only at high concentration. For the compound `O=C(CCC(=O)c1ccccc1)NCc1ccccc1`, the AC50 was 6.51 µM [falling, single point] under setting [1] and 6.51 µM [falling, single point] under setting [2].
Turning to `CCOc1cc(N2CCOCC2)c(OCC)cc1NC(=O)CN1C(=O)NC2(CCCCCCC2)C1=O`, the cell number change was -43.1%.
Consider `Cc1ccc(-n2nc3c(c2NC(=O)CCC2CCCCC2)CS(=O)C3)cc1` (configuration not stated), for which the cell number change was 2.58%. Also, the AC50 under setting [2] is 0.461 µM [rising, full curve].
Consider `COc1ccc(S(=O)(=O)c2c(O)c3ccc(C(=O)Nc4ccccc4F)cc3[nH]c2=O)cc1`, for which the cell number change was -21.6%. Besides, the AC50 under setting [2] was 3.66 µM [falling, single point].
In the case of `COc1ccc(C2(C)ON(c3ccccc3C(F)(F)F)C2=O)cc1` (configuration not stated), the cell number change was -82.7%. For the same compound, under setting [1], the AC50 is 18.4 µM [falling, single point].
For `Cn1c(COc2ccc3ccccc3c2)nnc1SCC(=O)OC1CCCCC1`, the cell number change was -24.6%. Further, the AC50 under setting [2] was 0.651 µM [falling, full curve, poor fit].
As to `CC(C)OCCCNC(=O)c1cc2c(s1)CS(=O)(=O)C2`, the cell number change is -71.4%. Further, the AC50 under setting [1] is 3.66 µM [falling, partial curve, poor fit]. Also, under setting [2], the AC50 was 23.1 µM [falling, partial curve, poor fit].
As for `COc1ccccc1N1CCN(/N=C\c2ccccc2)CC1`, the cell number change is -5.47%. In addition, the AC50 under setting [2] is 20.6 µM [rising, single point].
`CC(=C/c1ccco1)/C=N/N1CCN(c2ccccc2)CC1`: the cell number change is 4.84%. The AC50 under setting [2] is 29.1 µM [rising, single point].
As to `N[C@@H](Cc1ccc(O)cc1)c1nnc([C@H](CCC(=O)O)NC(=O)C2CCNCC2)o1`, the cell number change is -0.841%. Moreover, the AC50 under setting [2] was 0.651 µM [falling, single point].
In the case of `O=C1CS(=O)CN1c1ccc(Oc2ccccc2)cc1` (configuration not stated), the cell number change was -40.4%. Further, the AC50 under setting [1] is 29.1 µM [falling, single point].
Turning to `Cc1cc(NC(=O)CCC(=O)N(Cc2cccs2)C(C(=O)NC2CCCC2)c2ccncc2)no1` (configuration not stated), the cell number change was -15.9%. Under setting [2], the AC50 was 11.6 µM [rising, partial curve].
`FC(F)(F)c1cccc(CNC2c3ccccc3-c3ccccc32)c1`: the AC50 under setting [2] is 0.411 µM [rising, partial curve, poor fit].
As for `CCOC(=O)N1CCC(NC(=O)CCc2c(C)nc3c(c(C)nn3C(C)(C)C)c2C)CC1`, the cell number change is -73.2%. The AC50 under setting [2] was 23.1 µM [falling, single point].
For the compound `CCOc1ccccc1C(=O)Nc1cc(C)ccc1NC(=O)c1ccco1`, the cell number change came to 4.91%.
For `Cc1ccc([N+](=O)[O-])cc1S(=O)(=O)NCCc1cn2ccccc2n1`, the cell number change is 3.09%. The AC50 under setting [2] is 0.0082 µM [falling, full curve, poor fit].
Regarding `CCOC(=O)N1CCc2c(sc3c2c(=O)n(Cc2ccccc2)c(=O)n3Cc2ccccc2F)C1`, the cell number change is -4.4%.
`COc1cccc(N2CCN(C(=O)c3cccc(N4C(=O)NC5CC4(C)Oc4c(OC)cccc45)c3)CC2)c1` (configuration not stated): the cell number change is -9.44%. Besides, under setting [2], the AC50 was 6.51 µM [rising, partial curve, poor fit].
Consider `O=C(O)Cn1c(Cc2ccccc2)nc2ccccc21`, for which the cell number change is 15.8%.
As for `CCOC(=O)c1c(C)n(S(=O)(=O)c2ccc(C)cc2)c2ccc(O)c(C(=O)O)c12`, the cell number change is 13.7%. The AC50 under setting [2] is 18.4 µM [rising, partial curve].
With `O=C(COC(=O)c1ccc(O)cc1)Nc1ncc(Cl)cc1Cl`, the cell number change stood at 53.9%.
As for `O=C1CN(C(=O)/C=C/c2ccccc2F)c2ccccc2N1`, the cell number change was 101%.
Take `C[C@H](NC(=O)c1ccccc1Cl)C(=O)NCc1cccs1`: the cell number change is 40.2%. Further, the concentration at half-maximal activity (AC50) under setting [1] was 3.26 µM [rising, partial curve, poor fit].
`CCOc1ccc(CCNC(=O)CN2C(=O)COc3ccc(S(=O)(=O)N4CCOCC4)cc32)cc1`: the cell number change is -2.47%. In addition, under setting [2], the AC50 is 0.206 µM [rising, full curve, poor fit].
`CCOc1ccccc1C1CC(c2ccc(F)cc2)Nc2nc(N)nn21` (configuration not stated): the cell number change is -16%. For the same compound, under setting [1], the AC50 is 3.26 µM [falling, partial curve]. In addition, the AC50 under setting [2] was 0.103 µM [rising, single point].
On to `O=C(Nc1cccnc1)c1ccc(NS(=O)(=O)c2cccc([N+](=O)[O-])c2)cc1`, for which the cell number change is -24.3%. For the same compound, the AC50 under setting [1] was 0.00461 µM [falling, full curve, poor fit]. In addition, the AC50 under setting [2] is 0.00731 µM [falling, full curve, poor fit].
`CSCCC(NS(=O)(=O)c1ccc(C)cc1)C(=O)N1CCN(C(c2ccccc2)c2ccccc2)CC1` (configuration not stated): the cell number change was 37.6%. Also, the AC50 under setting [1] is 6.51 µM [rising, full curve, poor fit]. The AC50 under setting [2] was 8.2 µM [rising, partial curve].
With `CC(C)(C)n1nnnc1CN1CCN2CCCC2C1` (configuration not stated), the cell number change is -66.3%. Moreover, the AC50 under setting [1] was 5.8 µM [falling, full curve]. The AC50 under setting [2] is 1.64 µM [falling, partial curve].
On to `CCC(c1nnc(SCC(=O)NNC(=O)c2ccccc2)n1Cc1ccccc1)N(C)C` (configuration not stated), for which the cell number change was 13.5%.
Regarding `COc1cc(NC(=O)c2cccs2)c(OC)cc1NC(=O)CCC(=O)Nc1ccc2ncccc2c1`, the cell number change was -67.2%. In addition, under setting [1], the AC50 is 29.1 µM [falling, single point].
For the compound `COc1ccc(NC(=S)NC2CCCCC2)cn1`, the cell number change is 7.98%. In addition, the AC50 under setting [2] was 0.116 µM [falling, full curve, poor fit].
In the case of `COc1ccc(NC(=O)CSc2nc3ccncc3[nH]2)c(OC)c1`, under setting [2], the AC50 was 29.1 µM [rising, single point].
As to `COC(CNC(=O)CN1CCN(Cc2ccccc2F)C1=O)OC`, the cell number change came to 16.3%. For the same compound, the AC50 under setting [2] is 29.1 µM [rising, single point].
On to `Cc1ccc(OCC(=O)Nc2cc(NC(=O)COc3ccc(C)cc3)cc(C(=O)O)c2)cc1`, for which the cell number change was -12.4%.
As to `O=C1c2ccccc2C(=O)N1CCCc1cn(C[C@H]2CC[C@@H]([C@@H]3CC[C@H](Cn4cc(CCCN5C(=O)c6ccccc6C5=O)nn4)O3)O2)nn1`, the cell number change was determined as 13.6%.
Regarding `N#Cc1ccc(-c2ccccc2)nc1Sc1ccc(F)cc1`, the cell number change stood at 109%.
As to `Cn1c(N)c(C(=O)CSc2nn(-c3ccc(F)cc3)c(=S)s2)c(=O)n(C)c1=O`, the cell number change is -37.7%. For the same compound, the AC50 under setting [1] is 29.1 µM [falling, single point]. In addition, the AC50 under setting [2] is 29.1 µM [falling, single point].
With `O=c1cc(-c2ccccc2)n(S(=O)(=O)c2ccccc2)o1`, the cell number change came to 15.5%. Further, the AC50 under setting [2] is 29.1 µM [falling, single point].
`COc1cc(/C=N\n2nnnc2N)ccc1OCc1ccc(F)cc1`: the cell number change is -38.7%. Further, the AC50 under setting [1] was 4.61 µM [falling, full curve]. Besides, the AC50 under setting [2] was 7.31 µM [falling, partial curve].
For `CCN(C(=O)COC(=O)/C=C/c1cnc2ccccc2n1)c1ccccc1`, the cell number change was determined as 7.28%.
Turning to `COCCCNC(=O)CC1Oc2ccccc2NC1=O` (configuration not stated), the cell number change is -2.83%. In addition, the half-maximal activity concentration (AC50) under setting [2] was 7.31 µM [falling, partial curve].
`O=C(Nc1ccc2ccccc2c1)c1ccc(NS(=O)(=O)c2ccc(Br)s2)cc1`: the cell number change came out at 1.49%.
As for `Cc1cc(C)c2nc(NC(=O)C3CCCO3)sc2c1` (configuration not stated), the AC50 under setting [1] is 2.06 µM [rising, partial curve] and the AC50 under setting [2] is 7.31 µM [rising, partial curve].
Regarding `CCc1nn(C(C)C(=O)N2CCN(Cc3ccccc3)CC2)c(=O)c2cc3occc3n12` (configuration not stated), the cell number change was -26.8%. Further, the AC50 under setting [2] is 29.1 µM [rising, single point].
`O=C(CSc1nnc(-c2cccs2)n1-c1ccccc1)c1ccc2c(c1)OCCO2`: the cell number change amounted to 5.03%. Besides, the AC50 under setting [2] is 3.26 µM [rising, single point].
As to `Cc1n[nH]c(=O)c2c(NC(=O)CSc3nnnn3-c3ccccc3)oc(C)c12`, the cell number change came out at 65.7%. In addition, the AC50 under setting [1] is 29.1 µM [rising, single point]. Under setting [2], the AC50 was 29.1 µM [rising, single point].
On to `O=C(Nc1ccccc1)C1C2CCC3C(CCC21)C3(Cl)Cl` (configuration not stated), for which the cell number change came out at 5.34%. Further, the AC50 under setting [2] is 1.84 µM [falling, single point].
Take `CN(C(=O)COc1ccccc1)c1nc(-c2ccc(F)cc2)cs1`: the cell number change is -46.8%. The AC50 under setting [2] is 25.9 µM [falling, partial curve, poor fit].
For the compound `CCn1ccnc1C(O)c1cccc(OC)c1OC` (configuration not stated), the cell number change stood at 37.5%. Besides, the concentration at half-maximal activity (AC50) under setting [1] was 0.206 µM [rising, full curve, poor fit]. Further, the AC50 under setting [2] is 29.1 µM [rising, single point].
In the case of `COCCNS(=O)(=O)c1ccc(OCC(=O)N2CCc3ccccc3C2)c(Cl)c1`, the cell number change is -30.7%.
Consider `N=c1c(C(=O)NCc2ccco2)cc2c(=O)n3ccccc3nc2n1CCc1ccccc1`, for which the cell number change was -18.3%. Also, the AC50 under setting [2] was 4.11 µM [rising, partial curve].
For the compound `CNC(=O)c1ccsc1NC(=O)c1ccc(Cl)s1`, the cell number change was -4.73%. For the same compound, the AC50 under setting [2] is 13 µM [rising, partial curve].
For `Nc1cccc2c1C(=O)N(C(=O)c1ccc(S(=O)(=O)N3CCCCCC3)cc1)C2=O`, the cell number change worked out at 17%. The AC50 under setting [2] was 0.103 µM [falling, full curve, poor fit].
In the case of `CCn1c(SCC(=O)OC)nnc1-c1c[nH]c2ccccc12`, the cell number change is -20.9%. Under setting [2], the AC50 is 0.164 µM [falling, full curve, poor fit].
`CC(=O)c1ccc(N(CC(=O)NCc2ccc3c(c2)OCO3)C(=O)c2csnn2)cc1`: the cell number change is 27.8%. Besides, the AC50 under setting [2] was 10.3 µM [rising, partial curve, poor fit].
On to `CCCn1c(SCC(=O)N2CCCCC2)nnc1-c1ccco1`, for which the cell number change is 16.4%. Moreover, under setting [2], the AC50 is 29.1 µM [rising, single point].
`Cc1ccc(OCC(=O)N2CCc3ccccc32)c([N+](=O)[O-])n1`: the cell number change amounted to 72.4%. For the same compound, the AC50 under setting [1] is 25.9 µM [rising, single point].
Consider `CCOC(=O)c1cnn(-c2nc3sc4c(c3c(=O)[nH]2)CCCC4)c1N`, for which the cell number change is -8.59%. Further, the AC50 under setting [2] was 0.82 µM [rising, single point].
Take `COc1cc2c(cc1NC(=O)CN1CCN(S(=O)(=O)c3ccc(C)cc3)CC1)oc1ccccc12`: the AC50 under setting [1] was 0.13 µM [falling, full curve, poor fit] and the AC50 under setting [2] is 1.64 µM [falling, full curve, poor fit].

(Values after PubChem BioAssay AID2685 (National Center for Advancing Translational Sciences (NCATS), 2010).)
